Here are results for three molecules from article PMC4733052, “Heart of glass anchors Rasip1 at endothelial cell-cell junctions to support vascular integrity” (eLife, 2016).

Protein sequences, listed by entry. Tags and fused reporters are not part of them. Residues count along the entry.
UniProt P08514, residues 1020-1039: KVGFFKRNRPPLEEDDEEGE

These are yes or no findings as the source states them, for the method shown. For some of these results: Binding seen in cells or lysates may run through a third protein. Some results given as binding are weak or reduced against the parent protein; the word gives no strength. Sequences can lack the tags named with a protein.

For experiment [1], the target named is T1, full-length FLAG-tagged Rasip1 (U2OS) (human) (UniProt Q5U651).
T1 sequence: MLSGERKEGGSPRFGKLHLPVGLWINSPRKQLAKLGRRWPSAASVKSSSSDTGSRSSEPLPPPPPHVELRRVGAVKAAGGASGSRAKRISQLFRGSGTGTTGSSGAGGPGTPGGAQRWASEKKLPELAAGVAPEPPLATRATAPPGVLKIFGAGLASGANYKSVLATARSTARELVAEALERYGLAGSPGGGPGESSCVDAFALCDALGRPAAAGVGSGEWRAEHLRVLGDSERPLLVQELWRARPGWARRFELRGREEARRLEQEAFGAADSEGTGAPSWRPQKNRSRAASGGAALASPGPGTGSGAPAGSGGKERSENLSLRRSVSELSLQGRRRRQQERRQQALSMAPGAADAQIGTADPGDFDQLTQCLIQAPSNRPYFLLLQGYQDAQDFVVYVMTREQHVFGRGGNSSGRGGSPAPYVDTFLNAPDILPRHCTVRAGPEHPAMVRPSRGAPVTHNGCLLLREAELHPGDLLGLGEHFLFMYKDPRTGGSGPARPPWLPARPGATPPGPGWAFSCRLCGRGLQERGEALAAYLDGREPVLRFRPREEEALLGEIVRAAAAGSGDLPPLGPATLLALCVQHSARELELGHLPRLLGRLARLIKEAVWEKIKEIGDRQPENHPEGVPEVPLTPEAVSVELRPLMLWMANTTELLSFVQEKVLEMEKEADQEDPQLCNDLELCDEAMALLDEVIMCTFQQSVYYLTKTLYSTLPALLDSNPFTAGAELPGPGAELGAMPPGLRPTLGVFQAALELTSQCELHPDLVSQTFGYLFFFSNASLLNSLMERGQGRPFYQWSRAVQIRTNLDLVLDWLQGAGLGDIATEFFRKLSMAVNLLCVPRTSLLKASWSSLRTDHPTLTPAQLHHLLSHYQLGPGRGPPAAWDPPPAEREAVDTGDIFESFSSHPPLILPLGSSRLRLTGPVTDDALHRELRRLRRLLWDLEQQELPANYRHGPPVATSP
Briefly: co-IP; HEK293T or U2OS transfected (U2OS also infected with shCtrl or shHEG1#1; in one panel 5 µM purified HEG1 tail peptide added), clarified lysate on anti-FLAG G1 Affinity Resin, 4°C 3 hours; Western blot. For orientation: A western blot detects proteins with antibodies after separation by electrophoresis.

For experiment [2], the target named is T2, FLAG-tagged full-length murine HEG1 (mouse) (UniProt E9Q7X6).
T2 sequence: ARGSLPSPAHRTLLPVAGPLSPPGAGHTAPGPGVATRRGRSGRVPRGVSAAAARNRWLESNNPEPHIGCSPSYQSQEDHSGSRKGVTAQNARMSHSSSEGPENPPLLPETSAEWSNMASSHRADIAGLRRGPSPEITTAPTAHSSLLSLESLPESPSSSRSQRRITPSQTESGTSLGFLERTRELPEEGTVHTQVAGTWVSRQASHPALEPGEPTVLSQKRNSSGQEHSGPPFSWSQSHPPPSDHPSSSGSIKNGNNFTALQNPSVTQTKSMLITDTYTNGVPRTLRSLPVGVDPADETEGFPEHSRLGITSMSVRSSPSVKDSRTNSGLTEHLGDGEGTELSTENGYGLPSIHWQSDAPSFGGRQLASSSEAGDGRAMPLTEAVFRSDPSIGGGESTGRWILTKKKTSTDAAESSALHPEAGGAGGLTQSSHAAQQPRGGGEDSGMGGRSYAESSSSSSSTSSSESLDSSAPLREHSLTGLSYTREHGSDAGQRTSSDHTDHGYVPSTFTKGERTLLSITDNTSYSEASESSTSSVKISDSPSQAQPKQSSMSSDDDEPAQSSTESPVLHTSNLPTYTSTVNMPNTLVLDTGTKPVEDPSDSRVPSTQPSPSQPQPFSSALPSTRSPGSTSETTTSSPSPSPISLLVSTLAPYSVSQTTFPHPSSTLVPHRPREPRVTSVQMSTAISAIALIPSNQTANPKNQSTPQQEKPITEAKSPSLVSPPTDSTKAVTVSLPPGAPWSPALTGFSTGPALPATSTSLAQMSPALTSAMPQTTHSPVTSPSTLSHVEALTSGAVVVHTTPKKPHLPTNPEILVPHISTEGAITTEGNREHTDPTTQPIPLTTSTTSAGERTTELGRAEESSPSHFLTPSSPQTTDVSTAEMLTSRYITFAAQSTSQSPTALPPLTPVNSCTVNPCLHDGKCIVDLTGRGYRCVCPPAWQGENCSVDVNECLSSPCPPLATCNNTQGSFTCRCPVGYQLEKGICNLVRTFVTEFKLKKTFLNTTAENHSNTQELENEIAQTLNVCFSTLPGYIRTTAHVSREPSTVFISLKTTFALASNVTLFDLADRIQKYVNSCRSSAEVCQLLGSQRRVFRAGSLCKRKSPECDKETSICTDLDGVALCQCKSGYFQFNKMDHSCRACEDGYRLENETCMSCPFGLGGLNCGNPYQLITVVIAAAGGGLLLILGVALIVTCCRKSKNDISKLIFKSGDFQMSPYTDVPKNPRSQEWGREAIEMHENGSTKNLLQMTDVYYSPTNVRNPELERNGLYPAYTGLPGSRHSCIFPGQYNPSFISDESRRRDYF
The experiment is described as above.

The target of experiment [3] is T3, FLAG-tagged murine HEG1(∆1283-1291) (mouse) (UniProt E9Q7X6).
T3 sequence: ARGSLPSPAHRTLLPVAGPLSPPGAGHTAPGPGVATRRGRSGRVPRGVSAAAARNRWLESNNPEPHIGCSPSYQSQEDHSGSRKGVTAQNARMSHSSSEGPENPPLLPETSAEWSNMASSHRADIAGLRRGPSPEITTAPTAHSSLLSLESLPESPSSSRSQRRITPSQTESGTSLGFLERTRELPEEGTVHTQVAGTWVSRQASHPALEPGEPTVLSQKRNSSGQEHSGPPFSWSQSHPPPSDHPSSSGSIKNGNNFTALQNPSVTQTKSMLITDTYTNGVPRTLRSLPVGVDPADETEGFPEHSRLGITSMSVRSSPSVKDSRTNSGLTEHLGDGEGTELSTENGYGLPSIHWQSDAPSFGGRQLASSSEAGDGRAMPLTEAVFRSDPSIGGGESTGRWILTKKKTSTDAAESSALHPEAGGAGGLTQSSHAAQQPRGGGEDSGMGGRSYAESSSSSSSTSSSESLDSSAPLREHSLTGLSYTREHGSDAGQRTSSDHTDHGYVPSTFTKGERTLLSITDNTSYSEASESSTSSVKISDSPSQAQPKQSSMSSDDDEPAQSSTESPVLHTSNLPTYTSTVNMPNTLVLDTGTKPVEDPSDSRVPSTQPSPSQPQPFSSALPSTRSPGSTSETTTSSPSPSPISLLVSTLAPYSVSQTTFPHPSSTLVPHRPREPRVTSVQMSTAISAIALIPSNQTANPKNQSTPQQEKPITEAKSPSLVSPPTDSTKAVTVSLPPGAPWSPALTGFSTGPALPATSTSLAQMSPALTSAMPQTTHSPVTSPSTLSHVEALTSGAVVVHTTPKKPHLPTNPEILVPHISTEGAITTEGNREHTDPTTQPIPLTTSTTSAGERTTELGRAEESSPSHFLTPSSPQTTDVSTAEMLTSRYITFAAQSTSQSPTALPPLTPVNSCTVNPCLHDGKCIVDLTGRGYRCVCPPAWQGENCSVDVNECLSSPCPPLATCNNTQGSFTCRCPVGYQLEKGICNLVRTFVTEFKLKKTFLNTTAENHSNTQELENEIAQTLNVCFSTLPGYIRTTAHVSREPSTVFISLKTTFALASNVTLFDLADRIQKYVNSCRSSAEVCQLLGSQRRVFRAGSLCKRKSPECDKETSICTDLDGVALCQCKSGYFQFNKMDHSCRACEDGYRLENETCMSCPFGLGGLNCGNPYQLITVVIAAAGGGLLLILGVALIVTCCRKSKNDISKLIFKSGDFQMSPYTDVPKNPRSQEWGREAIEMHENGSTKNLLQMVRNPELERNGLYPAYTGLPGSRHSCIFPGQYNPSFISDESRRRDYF
The experiment is described as above.

Experiment [4] addresses αIIb integrin cytoplasmic tail (UniProt P08514). Briefly: pull-down; His-MBP-Rasip1 central domain at 2.5 μM incubated with HEG1 matrices in PBS with 0.1% Triton X-100, 0.5 mM EDTA, 2 mM DTT, 1 mM Maltose, 6°C 1 hour; SDS-PAGE, Coomassie-blue; both purified.

B1: mCherry-HA-Radil (protein, UniProt Q96JH8 1-1075)
chain: MFYGTHFIMSPPTKSKLKRQSQLLSSMLSRTLSYKYRDLDSTFSSLGASDDPAELSTQLSAPGVLKVFGDSVCTGTHYKSVLATGTSSARELVKEALERYALDPRQAGQYVLCDVVGQAGDAGQRWQARCFRVFGDSEKPLLIQELWKPREGLSRRFELRKRSDVEELAAKEVDTITAGINAQARRLQRSRAKGTPTPALGDARSSPPPRLRRTVSETSLSPVNALPAAAQGPEEPGPDAMRYSLYQSPHLLLLQGYSQQHDSLVYVLNRDRHTVGQRTPSSKPSISLSAPDILPLHCTIRRQPLPDSGQAAGRLVLEPIPGAHISVNFSEVGHRTVVLHHGDLLSLGLYYLLLFKDPAQAQPLPARALARLRAVPQSCRLCGAALGARGAASPTQAALPRRQQLLLEFEPHLEDTLLQRIMTLIEPGGDDHKLTPAFLLCLCIQHSATHFQPGTFGQLLLKIARLIRETVWEKTKELAEKQAQLQEPISLASCAMADLVPDLQPILFWMSNSIELLYFIQQKCPLYMQSMEEQLDITGSKESLFSCTLTASEEAMAVLEEVVLYAFQQCVYYVSKSLYICLPALLECPPFQTERRESWSSAPELPEELRRVVSVYQAALDLLRQLQVHPEVASQMLAYLFFFSGTLLLNQLLDRGPSLSCFHWPRGVQACARLQQLLEWMRSAGFGAAGEHFFQKLSCTLNLLATPRAQLIQMSWTALRAAFPALSPAQLHRLLTHYQLASAMGPMSTWEPGAQDSPEAFRSEDVLESYENPPPIVLPSDGFQVDLEANCLDDSIYQHLLYVRHFLWGLRSRASPGSPGRPGSGASQPVCPEGMHHVVLDGHLEAPSCPLAPRDPGPAAREVAPERTLPLRGAPWAQAPPGRQPSRGGSQAGPPHTDSSCLLTPPSTPLGPEPGDPDWPESGGPCGKALPERQRNGLSGLRGAAPEGDSAALAEESPPAPSSRSSSTEDFCYVFTVELERGPSGLGMGLIDGMHTHLGAPGLYIQTLLPGSPAAADGRLSLGDRILEVNGSSLLGLGYLRAVDLIRHGGKKMRFLVAKSDVETAKKIHFRTPPL
For the molecule B1, the binding entry in experiment [1] was “binds”.

B2: GFP-tagged full-length Rasip1 (HEK293T) (protein, UniProt Q5U651 1-963)
chain: MLSGERKEGGSPRFGKLHLPVGLWINSPRKQLAKLGRRWPSAASVKSSSSDTGSRSSEPLPPPPPHVELRRVGAVKAAGGASGSRAKRISQLFRGSGTGTTGSSGAGGPGTPGGAQRWASEKKLPELAAGVAPEPPLATRATAPPGVLKIFGAGLASGANYKSVLATARSTARELVAEALERYGLAGSPGGGPGESSCVDAFALCDALGRPAAAGVGSGEWRAEHLRVLGDSERPLLVQELWRARPGWARRFELRGREEARRLEQEAFGAADSEGTGAPSWRPQKNRSRAASGGAALASPGPGTGSGAPAGSGGKERSENLSLRRSVSELSLQGRRRRQQERRQQALSMAPGAADAQIGTADPGDFDQLTQCLIQAPSNRPYFLLLQGYQDAQDFVVYVMTREQHVFGRGGNSSGRGGSPAPYVDTFLNAPDILPRHCTVRAGPEHPAMVRPSRGAPVTHNGCLLLREAELHPGDLLGLGEHFLFMYKDPRTGGSGPARPPWLPARPGATPPGPGWAFSCRLCGRGLQERGEALAAYLDGREPVLRFRPREEEALLGEIVRAAAAGSGDLPPLGPATLLALCVQHSARELELGHLPRLLGRLARLIKEAVWEKIKEIGDRQPENHPEGVPEVPLTPEAVSVELRPLMLWMANTTELLSFVQEKVLEMEKEADQEDPQLCNDLELCDEAMALLDEVIMCTFQQSVYYLTKTLYSTLPALLDSNPFTAGAELPGPGAELGAMPPGLRPTLGVFQAALELTSQCELHPDLVSQTFGYLFFFSNASLLNSLMERGQGRPFYQWSRAVQIRTNLDLVLDWLQGAGLGDIATEFFRKLSMAVNLLCVPRTSLLKASWSSLRTDHPTLTPAQLHHLLSHYQLGPGRGPPAAWDPPPAEREAVDTGDIFESFSSHPPLILPLGSSRLRLTGPVTDDALHRELRRLRRLLWDLEQQELPANYRHGPPVATSP
As for B2, the binding result in experiment [2] is “binds”; in experiment [3] it was “no binding”.

B3: recombinant His-MBP-fusion Rasip1 central domain (residues 266-550) (protein)
chain: EAFGAADSEGTGAPSWRPQKNRSRAASGGAALASPGPGTGSGAPAGSGGKERSENLSLRRSVSELSLQGRRRRQQERRQQALSMAPGAADAQIGTADPGDFDQLTQCLIQAPSNRPYFLLLQGYQDAQDFVVYVMTREQHVFGRGGNSSGRGGSPAPYVDTFLNAPDILPRHCTVRAGPEHPAMVRPSRGAPVTHNGCLLLREAELHPGDLLGLGEHFLFMYKDPRTGGSGPARPPWLPARPGATPPGPGWAFSCRLCGRGLQERGEALAAYLDGREPVLRFRPR
For B3, the binding entry in experiment [4] is listed as “no binding (tested: 2.5 μM)”.
